Reference: PMC8189816, “Molecular Basis for the Interactions of Human Thioredoxins with Their Respective Reductases” (Oxidative Medicine and Cellular Longevity, 2021)
These are yes or no findings as the source states them, for the method shown. Binding can be weak; no strength is given.

Biological target: human thioredoxin reductase 1 (TrxR1) U498C mutant (human) (UniProt Q16881)
Assay: other fluorescence titration; tryptophan fluorescence quenching, excitation 296 nm, 25°C, 50 mM Tris, 1 mM EDTA, pH 7.4; spectrum of the mixture against the sum of the individual spectra, at different concentrations of thioredoxin; both purified

- binding: binds
B1: human Trx1 C32,35S (redox-inactive active site double mutant) (natural protein, UniProt P10599 1-105, looked up)
chain: MVKQIESKTAFQEALDAAGDKLVVVDFSATWSGPSKMIKPFFHSLSEKYSNVIFLEVDVDDCQDVASECEVKCMPTFQFFKKGQKVGEFSGANKEKLEATINELV
notes: human cytosolic thioredoxin 1, both active site cysteinyl residues exchanged for seryl residues; also called hTrx1C32,35S; double cysteinyl mutant
